Measurements as given in the supplement of paper PMC12593923.

Tests used:
Test in all cases: drug sensitivity score (DSS2, cytotoxicity, CellTox Green); higher = more cytotoxic / more sensitive; extreme values may be limits of the assay
Details in all cases: 72 h; doses 0.5, 1, 5 µM
[1] = tested on: Kuramochi
[2] = tested on: OVCAR4
[3] = tested on: OVCAR3

Compound | drug sensitivity score [1] | drug sensitivity score [2] | drug sensitivity score [3]
Cc1cn(-c2cc(NC(=O)c3ccc(C)c(Nc4nccc(-c5cccnc5)n4)c3)cc(C(F)(F)F)c2)cn1 [Nilotinib] | 0 DSS | 0 DSS | 0 DSS
CC(C)(C)c1cc(C(C)(C)C)c(NC(=O)c2c[nH]c3ccccc3c2=O)cc1O [Ivacaftor] | 0 DSS | 0 DSS | 0 DSS
Nc1cccc2c1C(=O)N(C1CCC(=O)NC1=O)C2=O (stereo not given) [Pomalidomide] | 0 DSS | 0 DSS | 0 DSS
COc1ccc2cc3[n+](cc2c1OC)CCc1cc2c(cc1-3)OCO2 [Berberine (chloride hydrate)] | 0 DSS | 0 DSS | 0 DSS
CC(C)C[C@H]1C(=O)N2CCC[C@H]2[C@]2(O)O[C@](NC(=O)[C@@H]3C=C4c5cccc6[nH]c(Br)c(c56)C[C@H]4N(C)C3)(C(C)C)C(=O)N12 [Bromocriptine (mesylate)] | 0 DSS | 0 DSS | 0 DSS
CO[C@H]1C(=O)[C@]2(C)[C@@H](OC)C[C@H]3OC[C@@]3(OC(C)=O)[C@H]2[C@H](OC(=O)c2ccccc2)[C@]2(O)C[C@H](OC(=O)[C@H](O)[C@@H](NC(=O)OC(C)(C)C)c3ccccc3)C(C)=C1C2(C)C [Cabazitaxel] | 5.9 DSS | 0 DSS | 5.6 DSS
CCCCc1oc2ccc(NS(C)(=O)=O)cc2c1C(=O)c1ccc(OCCCN(CCCC)CCCC)cc1 [Dronedarone] | 0 DSS | 0.2 DSS | 0.3 DSS
COc1ccc(Cl)cc1C(=O)NCCc1ccc(S(=O)(=O)NC(=O)NC2CCCCC2)cc1 [Glibenclamide] | 0 DSS | 0 DSS | 0 DSS
CCCCCCCC/C=C\CCCCCCCC(=O)[O-].[Na+] [Sodium oleate] | 0 DSS | 0 DSS | 0 DSS
CCCCc1nc(C)c(CC(=S)N(C)C)c(=O)n1Cc1ccc(-c2ccccc2-c2nnn[nH]2)cc1 [Fimasartan] | 0 DSS | 0 DSS | 0 DSS
O=C(O)CCC(=O)c1ccc(-c2ccccc2)cc1 [Fenbufen] | 0 DSS | 0 DSS | 0 DSS
CC/C(=C(\c1ccccc1)c1ccc(OCCN(C)C)cc1)c1ccccc1 [Tamoxifen] | 0 DSS | 0 DSS | 0 DSS
O=C([O-])c1ccc(-n2nc(-c3ccccc3[O-])nc2-c2ccccc2[O-])cc1.[Fe+3] [Deferasirox (Fe3+ chelate)] | 0 DSS | 0 DSS | 0 DSS
NC(=O)NO [Hydroxyurea] | 0 DSS | 0 DSS | 3.4 DSS
CNCc1ccc(-c2[nH]c3cc(F)cc4c3c2CCNC4=O)cc1 [Rucaparib] | 0 DSS | 0 DSS | 0 DSS
CN(C)CCCCC(=O)Nc1ccc(NC(=S)NC(=O)c2ccc(C(C)(C)C)cc2)cc1 [Tenovin-6 (Hydrochloride)] | 0 DSS | 0 DSS | 0 DSS
CO[C@H]1C[C@@H]2CC[C@@H](C)[C@@](O)(O2)C(=O)C(=O)N2CCCC[C@H]2C(=O)O[C@H]([C@H](C)C[C@@H]2CC[C@@H](OC(=O)C(C)(CO)CO)[C@H](OC)C2)CC(=O)[C@H](C)/C=C(\C)[C@@H](O)[C@@H](OC)C(=O)[C@H](C)C[C@H](C)/C=C/C=C/C=C/1C [Temsirolimus] | 0 DSS | 0 DSS | 0 DSS
CN(Cc1cc(Br)cc(Br)c1N)C1CCCCC1 [Bromhexine (hydrochloride)] | 0 DSS | 0 DSS | 0 DSS
CCn1c2ccccc2c2cc(CNC)ccc21 [PhiKan 083 hydrochloride] | 0 DSS | 0 DSS | 0 DSS
Cc1ncc([N+](=O)[O-])n1CCO [Metronidazole] | 0 DSS | 0 DSS | 0 DSS
O=c1[nH]c(=O)n([C@H]2C[C@H](O)[C@@H](CO)O2)cc1C(F)(F)F [Trifluridine] | 0 DSS | 0 DSS | 0 DSS
COC(=O)[C@H]1[C@H]2C[C@@H]3c4[nH]c5cc(OC)ccc5c4CCN3C[C@H]2C[C@@H](OC(=O)c2cc(OC)c(OC)c(OC)c2)[C@@H]1OC [Reserpine] | 0 DSS | 0 DSS | 0 DSS
Nc1ccc(S(=O)(=O)NC(=O)c2ccccc2)cc1 [Sulfabenzamide] | 0 DSS | 0 DSS | 0 DSS

Compound | drug sensitivity score [1] | drug sensitivity score [2] | drug sensitivity score [3]
COc1cc2nc(N3CCN(C(=O)c4ccco4)CC3)nc(N)c2cc1OC [Prazosin (hydrochloride)] | 4.9 DSS | 1.7 DSS | 2.4 DSS
C[C@H](CCC(=O)NCCS(=O)(=O)O)[C@H]1CC[C@H]2[C@@H]3[C@H](O)C[C@@H]4C[C@H](O)CC[C@]4(C)[C@H]3CC[C@]12C [Taurochenodeoxycholic acid (sodium salt)] | 0 DSS | 0 DSS | 0 DSS
CCCC(=O)Nc1ncnc2c1ncn2[C@@H]1O[C@@H]2COP(=O)(O)O[C@H]2[C@H]1OC(=O)CCC [Bucladesine (calcium)] | 0 DSS | 0 DSS | 0 DSS
COc1cc(C(N)=O)ccc1NC(=O)[C@@H]1N[C@@H](CC(C)(C)C)[C@@]2(C(=O)Nc3cc(Cl)ccc32)[C@H]1c1cccc(Cl)c1F [RO8994] | 0 DSS | 0 DSS | 0 DSS
Nc1c(Br)cc(Br)cc1CN[C@H]1CC[C@H](O)CC1 [Ambroxol (hydrochloride)] | 0 DSS | 0 DSS | 0 DSS
O=C(O)c1cccnc1 [Niacin] | 0 DSS | 0 DSS | 0 DSS
CC[C@H](C)C(=O)O[C@H]1C[C@@H](C)C=C2C=C[C@H](C)[C@H](CC[C@@H]3C[C@@H](O)CC(=O)O3)[C@H]21 [Lovastatin] | 2.2 DSS | 0.4 DSS | 1 DSS
CS(=O)(=O)c1ccc(C(=O)Nc2ccc(Cl)c(-c3ccccn3)c2)c(Cl)c1 [Vismodegib] | 0 DSS | 0 DSS | 2.7 DSS
CCc1c2c(nc3ccc(OC(=O)N4CCC(N5CCCCC5)CC4)cc13)-c1cc3c(c(=O)n1C2)COC(=O)[C@]3(O)CC [Irinotecan (hydrochloride)] | 0 DSS | 0 DSS | 0 DSS
COc1cc([C@@H]2c3cc4c(cc3[C@H](O)[C@H]3COC(=O)[C@H]23)OCO4)cc(OC)c1OC [Podofilox] | 2.6 DSS | 2.1 DSS | 7.7 DSS
CC(=O)Nc1ccc(NC(=S)NC(=O)c2ccc(C(C)(C)C)cc2)cc1 [Tenovin-1] | 0 DSS | 0 DSS | 0 DSS
COc1ccnc(C[S+]([O-])c2nc3cc(OC(F)F)ccc3[nH]2)c1OC (stereo not given) [Pantoprazole (sodium)] | 0 DSS | 0 DSS | 0 DSS
O=NN(CCCl)C(=O)NCCCl [Carmustine] | 0 DSS | 0 DSS | 0 DSS
C[N+](C)(C)CCOP(=O)(O)OP(=O)([O-])OC[C@H]1O[C@@H](n2ccc(N)nc2=O)[C@H](O)[C@@H]1O [Citicoline (sodium)] | 0 DSS | 0 DSS | 0 DSS
CC[C@]1(O)C[C@H]2CN(CCc3c([nH]c4ccccc34)[C@@](C(=O)OC)(c3cc4c(cc3OC)N(C=O)[C@H]3[C@@](O)(C(=O)OC)[C@H](OC(C)=O)[C@]5(CC)C=CCN6CC[C@]43[C@@H]65)C2)C1 [Vincristine (sulfate)] | 2.4 DSS | 0 DSS | 5 DSS
CC[C@H](Nc1ncnc2[nH]cnc12)c1nc2cccc(F)c2c(=O)n1-c1ccccc1 [Idelalisib] | 4 DSS | 1.1 DSS | 5.8 DSS
CC[C@]1(O)C[C@@H]2CN(CCc3c([nH]c4ccccc34)[C@@](C(=O)OC)(c3cc4c(cc3OC)N(C)[C@H]3[C@@](O)(C(=O)OC)[C@H](OC(C)=O)[C@]5(CC)C=CCN6CC[C@]43[C@@H]65)C2)C1 [Vinblastine (sulfate)] | 2.1 DSS | 1 DSS | 10 DSS
O=C(O)c1cc(O)c(O)c(O)c1 [Gallic acid] | 0 DSS | 0 DSS | 0 DSS
CCN(CCO)CCCC(C)Nc1ccnc2cc(Cl)ccc12 (stereo not given) [Hydroxychloroquine sulfate] | 0 DSS | 0 DSS | 0 DSS
Cc1ccc(C(=O)Nc2ccc(S(=O)(=O)O)c3cc(S(=O)(=O)O)cc(S(=O)(=O)O)c23)cc1NC(=O)c1cccc(NC(=O)Nc2cccc(C(=O)Nc3cc(C(=O)Nc4ccc(S(=O)(=O)O)c5cc(S(=O)(=O)O)cc(S(=O)(=O)O)c45)ccc3C)c2)c1 [Suramin (sodium salt)] | 0 DSS | 0 DSS | 0 DSS
CC1=C(/C=C/C(C)=C/C=C/C(C)=C/C(=O)O)C(C)(C)CCC1 [Retinoic acid] | 0 DSS | 0 DSS | 2 DSS
CN(Cc1cnc2nc(N)nc(N)c2n1)c1ccc(C(=O)N[C@@H](CCC(=O)O)C(=O)O)cc1 [Methotrexate] | 0 DSS | 0 DSS | 0 DSS

Not a retest: an excerpt of the list.
Compound | drug sensitivity score [1] | drug sensitivity score [2] | drug sensitivity score [3]
Cc1ccc(C(=O)Nc2ccc(S(=O)(=O)O)c3cc(S(=O)(=O)O)cc(S(=O)(=O)O)c23)cc1NC(=O)c1cccc(NC(=O)Nc2cccc(C(=O)Nc3cc(C(=O)Nc4ccc(S(=O)(=O)O)c5cc(S(=O)(=O)O)cc(S(=O)(=O)O)c45)ccc3C)c2)c1 [Suramin (sodium salt)] | 0 DSS | 0 DSS | 0 DSS
CC1=C(/C=C/C(C)=C/C=C/C(C)=C/C(=O)O)C(C)(C)CCC1 [Retinoic acid] | 0 DSS | 0 DSS | 2 DSS
CN(Cc1cnc2nc(N)nc(N)c2n1)c1ccc(C(=O)N[C@@H](CCC(=O)O)C(=O)O)cc1 [Methotrexate] | 0 DSS | 0 DSS | 0 DSS

Counter-ions that a name gives are not always drawn. Several reference drugs read as weak here; read low effects with care.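 All three lines are high-grade serous ovarian cancer cells differing in chemosensitivity, with OVCAR3 described as the chemosensitive one. Toxicity was scaled between DMSO vehicle wells and fully lysed wells, the score derives from a fitted multi-dose response curve, and the authors counted a score above 5 as drug sensitivity.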
